Measured values reported in paper PMC2408619.
These are yes or no findings as the source states them, for the method shown.

Key:
[1] = molecular target: His-tagged Prn-E Δ190–199 (minor loop deletion) (B. bronchiseptica) (UniProt Q03035); assay: SEC; Superdex 200; loop deletion mutants of Prn-E after refolding and purification; both purified
[2] = molecular target: His-tagged Prn-E Δ399–407 (major loop deletion) (B. bronchiseptica) (UniProt Q03035); assay: as above

Substance	binding [1]	binding [2]
His-tagged Prn-E Δ190–199 (minor loop deletion) (from UniProt Q03035 38-640) (domain or fragment)	no binding	–
His-tagged Prn-E Δ399–407 (major loop deletion) (from UniProt Q03035 38-640) (domain or fragment)	–	no binding
